According to the supplement of paper PMC10849652:
Some of the results follow.

Protein sequences, listed by entry. Tags and fused reporters are not part of them. Lines headed by an entry give the natural chain unless they say otherwise; changes in a name come on top.
UniProt O75937: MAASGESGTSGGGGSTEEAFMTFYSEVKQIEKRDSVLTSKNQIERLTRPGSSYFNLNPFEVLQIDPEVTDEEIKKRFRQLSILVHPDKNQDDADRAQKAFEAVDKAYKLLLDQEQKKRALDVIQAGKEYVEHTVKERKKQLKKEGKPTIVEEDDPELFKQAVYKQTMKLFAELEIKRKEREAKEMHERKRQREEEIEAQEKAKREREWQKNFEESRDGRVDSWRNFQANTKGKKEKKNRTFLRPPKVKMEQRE
UniProt Q56P03: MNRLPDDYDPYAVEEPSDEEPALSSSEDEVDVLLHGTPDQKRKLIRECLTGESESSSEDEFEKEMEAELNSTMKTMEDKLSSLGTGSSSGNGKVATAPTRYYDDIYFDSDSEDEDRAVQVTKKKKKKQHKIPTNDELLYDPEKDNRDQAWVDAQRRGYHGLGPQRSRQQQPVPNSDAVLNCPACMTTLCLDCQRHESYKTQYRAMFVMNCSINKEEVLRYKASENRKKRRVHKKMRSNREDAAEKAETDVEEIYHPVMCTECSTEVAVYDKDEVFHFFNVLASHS
UniProt Q9NP97, whole entry, looked up: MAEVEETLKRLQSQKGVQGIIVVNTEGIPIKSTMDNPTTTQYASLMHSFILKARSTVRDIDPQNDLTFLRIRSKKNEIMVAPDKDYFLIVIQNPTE
UniProt O43598: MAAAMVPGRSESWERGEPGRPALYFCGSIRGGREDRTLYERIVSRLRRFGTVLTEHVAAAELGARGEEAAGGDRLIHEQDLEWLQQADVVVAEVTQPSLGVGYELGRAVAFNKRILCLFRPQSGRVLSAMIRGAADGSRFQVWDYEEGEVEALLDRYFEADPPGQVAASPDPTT
UniProt Q9BZG8: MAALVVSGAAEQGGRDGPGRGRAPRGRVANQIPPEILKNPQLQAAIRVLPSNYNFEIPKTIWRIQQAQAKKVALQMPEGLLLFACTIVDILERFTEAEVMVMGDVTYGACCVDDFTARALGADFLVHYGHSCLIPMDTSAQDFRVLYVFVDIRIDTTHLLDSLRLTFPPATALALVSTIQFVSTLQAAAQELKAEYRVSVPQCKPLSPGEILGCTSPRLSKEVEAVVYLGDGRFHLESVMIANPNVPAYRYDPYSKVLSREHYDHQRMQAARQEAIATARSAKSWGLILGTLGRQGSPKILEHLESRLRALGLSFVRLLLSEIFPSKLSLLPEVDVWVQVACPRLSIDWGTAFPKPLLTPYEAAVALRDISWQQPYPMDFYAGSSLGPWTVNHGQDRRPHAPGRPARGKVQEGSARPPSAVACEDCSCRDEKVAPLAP
UniProt P26358: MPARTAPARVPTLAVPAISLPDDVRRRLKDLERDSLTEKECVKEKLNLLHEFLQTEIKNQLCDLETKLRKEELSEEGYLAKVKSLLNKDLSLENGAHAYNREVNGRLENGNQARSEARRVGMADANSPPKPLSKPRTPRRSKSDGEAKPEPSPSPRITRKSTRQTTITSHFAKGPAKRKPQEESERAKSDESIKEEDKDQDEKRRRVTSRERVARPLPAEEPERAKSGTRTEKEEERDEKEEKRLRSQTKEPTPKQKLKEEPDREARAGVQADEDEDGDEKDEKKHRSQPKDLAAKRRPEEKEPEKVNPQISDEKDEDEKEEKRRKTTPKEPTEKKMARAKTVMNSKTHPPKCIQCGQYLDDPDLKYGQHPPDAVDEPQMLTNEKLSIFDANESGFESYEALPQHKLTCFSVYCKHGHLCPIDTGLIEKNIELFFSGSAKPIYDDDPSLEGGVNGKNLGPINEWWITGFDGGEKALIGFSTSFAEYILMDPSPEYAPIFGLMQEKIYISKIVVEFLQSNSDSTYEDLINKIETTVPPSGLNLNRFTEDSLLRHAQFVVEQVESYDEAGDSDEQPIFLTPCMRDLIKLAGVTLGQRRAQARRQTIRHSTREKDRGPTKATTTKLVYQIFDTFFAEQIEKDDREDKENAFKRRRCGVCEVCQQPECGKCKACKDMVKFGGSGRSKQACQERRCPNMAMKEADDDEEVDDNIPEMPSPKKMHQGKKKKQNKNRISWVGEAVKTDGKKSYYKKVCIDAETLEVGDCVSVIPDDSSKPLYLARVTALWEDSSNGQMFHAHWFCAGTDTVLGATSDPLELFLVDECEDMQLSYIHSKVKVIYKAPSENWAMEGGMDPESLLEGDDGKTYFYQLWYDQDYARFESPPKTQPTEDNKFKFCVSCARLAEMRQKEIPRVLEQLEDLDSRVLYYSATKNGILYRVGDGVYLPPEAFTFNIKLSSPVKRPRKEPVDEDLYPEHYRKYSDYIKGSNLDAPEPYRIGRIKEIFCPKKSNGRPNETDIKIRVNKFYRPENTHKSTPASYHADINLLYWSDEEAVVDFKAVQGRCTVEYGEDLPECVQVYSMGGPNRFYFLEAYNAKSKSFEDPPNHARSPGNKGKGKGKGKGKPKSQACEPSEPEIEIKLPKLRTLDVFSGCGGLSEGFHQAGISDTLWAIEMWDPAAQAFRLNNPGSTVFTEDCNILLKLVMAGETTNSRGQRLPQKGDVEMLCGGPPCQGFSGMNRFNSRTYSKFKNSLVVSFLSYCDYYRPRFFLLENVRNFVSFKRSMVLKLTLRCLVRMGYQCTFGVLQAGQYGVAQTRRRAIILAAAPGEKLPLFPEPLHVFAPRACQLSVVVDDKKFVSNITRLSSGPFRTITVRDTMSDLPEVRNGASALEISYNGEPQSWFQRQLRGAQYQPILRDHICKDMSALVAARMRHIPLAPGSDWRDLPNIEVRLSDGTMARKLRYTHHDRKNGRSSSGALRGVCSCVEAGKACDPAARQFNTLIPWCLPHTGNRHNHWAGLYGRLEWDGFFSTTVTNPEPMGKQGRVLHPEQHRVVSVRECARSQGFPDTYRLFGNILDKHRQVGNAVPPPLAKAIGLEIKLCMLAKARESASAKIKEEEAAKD
UniProt Q13217: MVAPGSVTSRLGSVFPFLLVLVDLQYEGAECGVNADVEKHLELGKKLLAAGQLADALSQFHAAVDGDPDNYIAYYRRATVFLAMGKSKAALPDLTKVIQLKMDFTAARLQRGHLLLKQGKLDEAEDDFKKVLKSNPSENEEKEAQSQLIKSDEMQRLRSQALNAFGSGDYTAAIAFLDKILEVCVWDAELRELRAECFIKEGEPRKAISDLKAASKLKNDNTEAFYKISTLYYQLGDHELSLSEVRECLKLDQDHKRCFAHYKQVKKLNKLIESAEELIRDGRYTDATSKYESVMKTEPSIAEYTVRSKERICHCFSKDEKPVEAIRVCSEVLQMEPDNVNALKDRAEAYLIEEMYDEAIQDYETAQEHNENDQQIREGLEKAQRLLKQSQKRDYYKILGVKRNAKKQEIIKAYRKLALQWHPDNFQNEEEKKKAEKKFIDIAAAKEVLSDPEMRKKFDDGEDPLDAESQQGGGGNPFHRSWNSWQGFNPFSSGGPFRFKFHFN
UniProt O60762: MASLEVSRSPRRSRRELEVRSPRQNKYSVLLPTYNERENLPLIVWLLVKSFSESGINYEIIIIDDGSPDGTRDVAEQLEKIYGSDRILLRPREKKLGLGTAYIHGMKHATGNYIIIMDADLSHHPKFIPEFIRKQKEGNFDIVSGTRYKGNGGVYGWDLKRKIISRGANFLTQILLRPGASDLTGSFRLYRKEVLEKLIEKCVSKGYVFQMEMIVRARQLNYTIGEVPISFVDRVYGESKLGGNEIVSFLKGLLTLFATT
UniProt O60869: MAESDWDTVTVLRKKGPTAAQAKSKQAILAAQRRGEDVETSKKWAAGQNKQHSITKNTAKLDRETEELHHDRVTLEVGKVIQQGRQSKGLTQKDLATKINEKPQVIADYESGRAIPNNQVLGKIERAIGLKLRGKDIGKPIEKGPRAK
UniProt Q8IXB1: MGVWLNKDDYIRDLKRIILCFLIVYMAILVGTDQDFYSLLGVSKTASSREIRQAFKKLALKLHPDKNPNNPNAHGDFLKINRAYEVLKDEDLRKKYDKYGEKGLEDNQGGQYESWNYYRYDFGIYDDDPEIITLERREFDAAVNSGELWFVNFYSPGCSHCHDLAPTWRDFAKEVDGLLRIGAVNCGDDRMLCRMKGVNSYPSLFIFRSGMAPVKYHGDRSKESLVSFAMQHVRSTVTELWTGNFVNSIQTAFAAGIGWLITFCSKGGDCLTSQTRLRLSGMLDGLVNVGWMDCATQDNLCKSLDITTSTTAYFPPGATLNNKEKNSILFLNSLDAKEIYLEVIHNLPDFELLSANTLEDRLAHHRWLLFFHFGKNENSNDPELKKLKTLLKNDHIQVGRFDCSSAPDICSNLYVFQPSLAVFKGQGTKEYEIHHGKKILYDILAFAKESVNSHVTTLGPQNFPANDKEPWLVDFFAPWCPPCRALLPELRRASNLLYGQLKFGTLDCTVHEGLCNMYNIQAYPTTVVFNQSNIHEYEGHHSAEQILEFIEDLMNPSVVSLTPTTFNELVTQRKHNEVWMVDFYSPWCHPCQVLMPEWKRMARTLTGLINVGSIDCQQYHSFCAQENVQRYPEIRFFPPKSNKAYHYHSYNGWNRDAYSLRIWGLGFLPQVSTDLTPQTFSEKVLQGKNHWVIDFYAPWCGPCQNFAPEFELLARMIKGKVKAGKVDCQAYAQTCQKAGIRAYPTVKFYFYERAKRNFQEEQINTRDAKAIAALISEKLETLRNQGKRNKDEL
UniProt Q9Y295: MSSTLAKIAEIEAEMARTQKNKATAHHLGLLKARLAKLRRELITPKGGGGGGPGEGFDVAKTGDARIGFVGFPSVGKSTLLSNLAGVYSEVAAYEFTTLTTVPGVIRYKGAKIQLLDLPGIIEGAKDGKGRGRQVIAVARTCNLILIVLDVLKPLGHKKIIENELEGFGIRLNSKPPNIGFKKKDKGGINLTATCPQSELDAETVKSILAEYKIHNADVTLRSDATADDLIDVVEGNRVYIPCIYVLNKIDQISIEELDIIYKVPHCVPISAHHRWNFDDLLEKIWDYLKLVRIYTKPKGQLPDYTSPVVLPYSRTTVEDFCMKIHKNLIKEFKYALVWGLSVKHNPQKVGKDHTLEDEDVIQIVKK
UniProt Q96FX2: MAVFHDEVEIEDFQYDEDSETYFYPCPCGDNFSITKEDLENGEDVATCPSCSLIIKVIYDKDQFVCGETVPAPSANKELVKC
UniProt Q9P2X0: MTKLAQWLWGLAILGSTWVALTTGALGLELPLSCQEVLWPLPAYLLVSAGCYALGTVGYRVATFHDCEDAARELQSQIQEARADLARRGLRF
UniProt Q86TI2: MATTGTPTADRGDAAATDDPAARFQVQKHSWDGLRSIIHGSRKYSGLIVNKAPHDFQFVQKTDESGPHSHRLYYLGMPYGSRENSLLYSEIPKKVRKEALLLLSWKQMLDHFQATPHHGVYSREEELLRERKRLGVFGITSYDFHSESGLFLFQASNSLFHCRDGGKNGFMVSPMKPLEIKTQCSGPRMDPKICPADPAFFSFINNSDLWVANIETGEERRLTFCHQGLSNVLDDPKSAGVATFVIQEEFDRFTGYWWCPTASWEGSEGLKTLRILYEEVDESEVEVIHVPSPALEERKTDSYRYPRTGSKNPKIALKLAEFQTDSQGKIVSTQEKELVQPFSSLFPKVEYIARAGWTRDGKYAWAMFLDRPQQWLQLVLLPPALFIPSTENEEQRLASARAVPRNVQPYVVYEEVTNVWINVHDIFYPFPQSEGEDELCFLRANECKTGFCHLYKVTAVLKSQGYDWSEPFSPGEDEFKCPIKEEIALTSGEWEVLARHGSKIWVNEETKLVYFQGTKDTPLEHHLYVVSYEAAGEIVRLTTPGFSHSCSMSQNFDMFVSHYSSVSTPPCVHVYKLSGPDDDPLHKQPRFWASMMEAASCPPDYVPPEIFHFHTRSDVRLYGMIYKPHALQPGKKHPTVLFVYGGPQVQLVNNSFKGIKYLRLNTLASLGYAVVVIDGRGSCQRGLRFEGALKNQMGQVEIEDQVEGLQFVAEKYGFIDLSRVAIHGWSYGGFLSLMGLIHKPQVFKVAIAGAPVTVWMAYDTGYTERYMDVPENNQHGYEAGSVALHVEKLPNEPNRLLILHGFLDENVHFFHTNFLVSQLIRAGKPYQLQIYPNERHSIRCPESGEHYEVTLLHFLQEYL

Columns and labels:
Test in all cases: log2 fold change, soluble protein after heating vs DMSO (PISA); higher = thermal stabilisation; K562 cells, 10 uM, 30 min; active = over 0.2 and 3.5 SD of the protein, either way, in both replicates (recomputed)
saracatinib = compound: CN1CCN(CCOc2cc(OC3CCOCC3)c3c(Nc4c(Cl)ccc5c4OCO5)ncnc3c2)CC1 [saracatinib]
Summary of the method: (§1)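 K562 cells at 2×10^6 cells/mL were exposed to 10 μM compound for 30 min, then aliquots were heated for 3 min across 48°C-58°C, pooled, and extracted in PBS containing 0.5% NP-40 at 4°C. The supernatant after 21,000xg for 90 min was taken as soluble protein and measured by TMTpro 16plex LC-MS/MS with channel sums equalised. Thermal stability is reported relative to control samples, with values from duplicates. Fold changes are given on a log2 scale.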

sotrastaurin = compound: CN1CCN(c2nc(C3=C(c4c[nH]c5ccccc45)C(=O)NC3=O)c3ccccc3n2)CC1 [sotrastaurin]
Summary of the method: as §1

alvocidib = compound: CN1CC[C@H](c2c(O)cc(O)c3c(=O)cc(-c4ccccc4Cl)oc23)[C@H](O)C1 [alvocidib]
Summary of the method: as §1

Tubastatin A = compound: CN1CCc2c(c3ccccc3n2Cc2ccc(C(=O)NO)cc2)C1 [Tubastatin A]
Summary of the method: as §1

[1] = compound: CNC(=O)C1=CC=CC=C1NC2=NC(=NC=C2Cl)NC3=C(C=C(C=C3)N4CCOCC4)OC
Summary of the method: as §1

defactinib = compound: CNC(=O)c1ccc(Nc2ncc(C(F)(F)F)c(NCc3nccnc3N(C)S(C)(=O)=O)n2)cc1 [defactinib]
Summary of the method: as §1

rucaparib = compound: CNCc1ccc(-c2[nH]c3cc(F)cc4c3c2CCNC4=O)cc1 [rucaparib]
Summary of the method: as §1

[2] = compound: CNc1nc(-c2ccc3c(N)n[nH]c3c2)cc(N2C[C@@H](C(=O)NC3CCCCC3)CC[C@H]2C)n1
Summary of the method: as §1

encorafenib = compound: COC(=O)N[C@@H](C)CNc1nccc(-c2cn(C(C)C)nc2-c2cc(Cl)cc(NS(C)(=O)=O)c2F)n1 [encorafenib]
Summary of the method: as §1

[3] = compound: COC(=O)[C@H](CCSC)NC(=O)C1=C(C=C(C=C1)NC[C@H](CS)N)C2=CC=CC=C2
Summary of the method: as §1

[4] = compound: COC1=CC=C(C=C1)CN2C=CC3=C2C=C(C=C3)C(=O)NO
Summary of the method: as §1

filanesib = compound: CON(C)C(=O)N1N=C(c2cc(F)ccc2F)S[C@@]1(CCCN)c1ccccc1 [filanesib]
Summary of the method: as §1

zotarolimus = compound: CO[C@H]1C[C@@H]2CC[C@@H](C)[C@@](O)(O2)C(=O)C(=O)N2CCCC[C@H]2C(=O)O[C@H]([C@H](C)C[C@@H]2CC[C@H](n3cnnn3)[C@H](OC)C2)CC(=O)[C@H](C)/C=C(\C)[C@@H](O)[C@@H](OC)C(=O)[C@H](C)C[C@H](C)/C=C/C=C/C=C/1C [zotarolimus]
Summary of the method: as §1

idasanutlin = compound: COc1cc(C(=O)O)ccc1NC(=O)[C@@H]1N[C@@H](CC(C)(C)C)[C@](C#N)(c2ccc(Cl)cc2F)[C@H]1c1cccc(Cl)c1F [idasanutlin]
Summary of the method: as §1

alisertib = compound: COc1cc(Nc2ncc3c(n2)-c2ccc(Cl)cc2C(c2c(F)cccc2OC)=NC3)ccc1C(=O)O [alisertib]
Summary of the method: as §1

[5] = compound: COc1cc2nc(-c3cc(F)ccc3O)nc(N[C@@H]3CNC[C@H]3C(C)(C)O)c2cc1OC
Summary of the method: as §1

gefitinib = compound: COc1cc2ncnc(Nc3ccc(F)c(Cl)c3)c2cc1OCCCN1CCOCC1 [gefitinib]
Summary of the method: as §1

[6] = compound: COc1cccc2cc(-c3nc([C@H]4CC[C@H](C(=O)O)CC4)n4ncnc(N)c34)[nH]c12
Summary of the method: as §1

lapatinib = compound: CS(=O)(=O)CCNCc1ccc(-c2ccc3ncnc(Nc4ccc(OCc5cccc(F)c5)c(Cl)c4)c3c2)o1 [lapatinib]
Summary of the method: as §1

pictilisib = compound: CS(=O)(=O)N1CCN(Cc2cc3nc(-c4cccc5[nH]ncc45)nc(N4CCOCC4)c3s2)CC1 [pictilisib]
Summary of the method: as §1

Measured: log2 fold change

DNAJC8 (UniProt O75937)
inactive: saracatinib -0.028 | sotrastaurin 0.015 | alvocidib -0.047 | Tubastatin A -0.014 | [1] 0.028 | defactinib -0.032 | rucaparib -0.044 | [2] -0.015 | encorafenib 0.039 | [3] -0.027 | [4] 0.019 | filanesib -0.018 | zotarolimus 0.039 | idasanutlin -0.024 | alisertib 0.009 | [5] 0.054 | gefitinib -0.013 | [6] -0.007 | lapatinib -0.058 | pictilisib 0.009

EAPP (UniProt Q56P03)
inactive: saracatinib 0.03 | sotrastaurin 0.086 | alvocidib -0.05 | Tubastatin A -0.003 | [1] 0.031 | defactinib -0.241 | rucaparib 0.184 | [2] -0.04 | encorafenib -0.082 | [3] 0.073 | [4] -0.245 | filanesib 0.062 | zotarolimus 0.02 | idasanutlin 0.081 | alisertib -0.11 | [5] 0.08 | gefitinib -0.023 | [6] -0.039 | lapatinib 0.079 | pictilisib 0.007

DYNLRB1 (UniProt Q9NP97)
inactive: saracatinib -0.062 | sotrastaurin 0.056 | alvocidib -0.013 | Tubastatin A 0.018 | [1] 0.044 | defactinib 0.006 | rucaparib 0.035 | [2] 0.002 | encorafenib -0.035 | [3] 0.066 | [4] 0.009 | filanesib 0.031 | zotarolimus -0.018 | idasanutlin 0.008 | alisertib -0.042 | [5] -0.032 | gefitinib 0.04 | [6] 0.045 | lapatinib -0.009 | pictilisib 0.021

DNPH1 (UniProt O43598)
inactive: saracatinib 0.034 | sotrastaurin 0.048 | alvocidib -0.004 | Tubastatin A 0.017 | [1] 0.108 | defactinib -0.061 | rucaparib 0.034 | [2] -0.037 | encorafenib -0.003 | [3] 0.007 | [4] 0.066 | filanesib 0.024 | zotarolimus -0.007 | idasanutlin 0.053 | alisertib -0.063 | [5] -0.053 | gefitinib 0.015 | [6] 0.04 | lapatinib -0.008 | pictilisib -0.015

DPH1 (UniProt Q9BZG8)
inactive: saracatinib 0.037 | sotrastaurin -0.035 | alvocidib 0.019 | Tubastatin A -0.032 | [1] -0.033 | defactinib -0.033 | rucaparib 0 | [2] -0.011 | encorafenib 0.021 | [3] -0.007 | [4] -0.037 | filanesib -0.004 | zotarolimus -0.083 | idasanutlin -0.029 | alisertib -0.059 | [5] -0.013 | gefitinib -0.043 | [6] -0.152 | lapatinib 0.033 | pictilisib -0.166

DNMT1 isoform 2 (UniProt P26358)
inactive: saracatinib 0.019 | sotrastaurin -0.014 | alvocidib -0.033 | Tubastatin A -0.009 | [1] 0.03 | defactinib -0.007 | rucaparib -0.011 | [2] -0.016 | encorafenib -0.006 | [3] -0.016 | [4] -0.023 | filanesib -0.033 | zotarolimus 0.027 | idasanutlin -0.037 | alisertib -0.034 | [5] 0.007 | gefitinib 0.022 | [6] -0.034 | lapatinib 0.005 | pictilisib 0.026

DNAJC3 (UniProt Q13217)
inactive: saracatinib -0.06 | sotrastaurin 0.007 | alvocidib 0.037 | Tubastatin A -0.008 | [1] 0.014 | defactinib 0.028 | rucaparib 0.042 | [2] -0.038 | encorafenib 0.042 | [3] 0.01 | [4] -0.039 | filanesib 0.108 | zotarolimus 0.018 | idasanutlin -0.005 | alisertib -0.122 | [5] -0.023 | gefitinib 0.015 | [6] -0.048 | lapatinib 0.03 | pictilisib -0.001

DPM1 (UniProt O60762)
inactive: saracatinib -0.019 | sotrastaurin 0.033 | alvocidib -0.01 | Tubastatin A -0.014 | [1] 0.062 | defactinib 0.01 | rucaparib -0.043 | [2] -0.068 | encorafenib 0.008 | [3] 0.04 | [4] -0.029 | filanesib -0.079 | zotarolimus -0.033 | idasanutlin -0.044 | alisertib -0.051 | [5] -0.015 | gefitinib 0.001 | [6] 0.052 | lapatinib -0.011 | pictilisib 0.043

EDF1 (UniProt O60869)
inactive: saracatinib 0.028 | sotrastaurin 0.048 | alvocidib -0.024 | Tubastatin A 0.016 | [1] -0.006 | defactinib -0.021 | rucaparib -0.024 | [2] -0.028 | encorafenib -0.013 | [3] 0.037 | [4] 0.041 | filanesib -0.022 | zotarolimus -0.056 | idasanutlin -0.018 | alisertib -0.02 | [5] 0.028 | gefitinib -0.003 | [6] 0.029 | lapatinib -0.08 | pictilisib 0.002

DYNC1H1 (UniProt Q14204)
inactive: saracatinib -0.022 | sotrastaurin -0.016 | alvocidib -0.047 | Tubastatin A 0.004 | [1] 0.016 | defactinib -0.006 | rucaparib -0.004 | [2] 0.033 | encorafenib 0.025 | [3] -0.024 | [4] 0.012 | filanesib -0.057 | zotarolimus 0.023 | idasanutlin -0.055 | alisertib -0.05 | [5] 0.008 | gefitinib 0.006 | [6] -0.001 | lapatinib 0.028 | pictilisib 0.008

DNAJC10 (UniProt Q8IXB1)
inactive: saracatinib -0.026 | sotrastaurin -0.017 | alvocidib 0.015 | Tubastatin A 0.043 | [1] -0.042 | defactinib 0.095 | rucaparib 0.127 | [2] 0.077 | encorafenib 0.04 | [3] -0.011 | [4] 0.087 | filanesib 0.041 | zotarolimus 0.052 | idasanutlin 0.046 | alisertib -0.29 | [5] -0.136 | gefitinib -0.006 | [6] -0.081 | lapatinib 0.13 | pictilisib -0.031

Random excerpt: two entries already listed, in no set order.
DNMT1 isoform 2 (UniProt P26358)
inactive: saracatinib 0.019 | sotrastaurin -0.014 | alvocidib -0.033 | Tubastatin A -0.009 | [1] 0.03 | defactinib -0.007 | rucaparib -0.011 | [2] -0.016 | encorafenib -0.006 | [3] -0.016 | [4] -0.023 | filanesib -0.033 | zotarolimus 0.027 | idasanutlin -0.037 | alisertib -0.034 | [5] 0.007 | gefitinib 0.022 | [6] -0.034 | lapatinib 0.005 | pictilisib 0.026

EDF1 (UniProt O60869)
inactive: saracatinib 0.028 | sotrastaurin 0.048 | alvocidib -0.024 | Tubastatin A 0.016 | [1] -0.006 | defactinib -0.021 | rucaparib -0.024 | [2] -0.028 | encorafenib -0.013 | [3] 0.037 | [4] 0.041 | filanesib -0.022 | zotarolimus -0.056 | idasanutlin -0.018 | alisertib -0.02 | [5] 0.028 | gefitinib -0.003 | [6] 0.029 | lapatinib -0.08 | pictilisib 0.002

The list goes on:

DRG1 (UniProt Q9Y295)
inactive: saracatinib -0.014 | sotrastaurin 0.002 | alvocidib 0.072 | Tubastatin A 0.006 | [1] 0.073 | defactinib 0.09 | rucaparib 0.056 | [2] -0.015 | encorafenib 0.022 | [3] 0.016 | [4] -0.03 | filanesib 0.067 | zotarolimus -0.002 | idasanutlin 0.009 | alisertib -0.053 | [5] 0.042 | gefitinib -0.024 | [6] -0.051 | lapatinib 0.005 | pictilisib 0.002

DPH3 (UniProt Q96FX2)
inactive: saracatinib 0.03 | sotrastaurin -0.048 | alvocidib -0.16 | Tubastatin A 0.027 | [1] 0.073 | defactinib 0.019 | rucaparib -0.036 | [2] -0.126 | encorafenib -0.044 | [3] 0.193 | [4] 0.217 | filanesib 0.095 | zotarolimus -0.046 | idasanutlin -0.124 | alisertib -0.033 | [5] -0.151 | gefitinib -0.052 | [6] -0.044 | lapatinib -0.088 | pictilisib -0.144

DPM3 isoform 2 (UniProt Q9P2X0)
inactive: saracatinib 0.015 | sotrastaurin 0.068 | alvocidib -0.124 | Tubastatin A 0.029 | [1] 0.047 | defactinib 0.015 | rucaparib 0.04 | [2] -0.044 | encorafenib -0.033 | [3] -0.287 | [4] -0.169 | filanesib -0.008 | zotarolimus -0.076 | idasanutlin 0.049 | alisertib -0.057 | [5] -0.126 | gefitinib 0.12 | [6] 0.009 | lapatinib 0.018

DPP7 (UniProt Q9UHL4)
inactive: saracatinib 0.017 | sotrastaurin 0.061 | alvocidib -0.006 | Tubastatin A -0.024 | [1] 0.014 | defactinib -0.021 | rucaparib 0.024 | [2] -0.032 | encorafenib -0.002 | [3] 0.012 | [4] 0.063 | filanesib 0.008 | zotarolimus -0.016 | idasanutlin -0.045 | alisertib -0.05 | [5] -0.025 | gefitinib 0.033 | [6] 0.022 | lapatinib 0.003 | pictilisib 0.056

DPP9 isoform 2 (UniProt Q86TI2)
inactive: saracatinib -0.023 | sotrastaurin 0.021 | alvocidib -0.081 | Tubastatin A -0.032 | [1] -0.008 | defactinib -0.049 | rucaparib 0.049 | [2] 0.071 | encorafenib -0.026 | [3] -0.037 | [4] -0.013 | filanesib -0.053 | zotarolimus 0.001 | idasanutlin -0.083 | alisertib 0.002 | [5] 0.081 | gefitinib 0.018 | [6] 0.034 | lapatinib 0.039 | pictilisib -0.002
